The structures appear in SMILES notation. Most of the hits are listed elsewhere, so they are rarer here than in the full data. Records with an inconclusive call do not appear. Activity calls are given as the source filed them. Calls come from the whole dose curve; as a rule, active = well fitted inhibition curve with a large enough effect; inconclusive = small, poorly fitted or top-dose-only effect; inactive = no such curve, though single readings can be large or run the other way.

This note sets out measurements from PubChem BioAssay AID720537 (National Center for Advancing Translational Sciences (NCATS), 2013).

The assay in a line: qHTS for Inhibitors of TGF-b: Hit Validation in HepG2 Cells using COP promoter.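 Note: 0% = TGF-beta stimulated DMSO wells and -100% = unstimulated cell wells; nearly all actives have a fitted effect of over 70% in size.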 The note with it: HepG2 COP-GFP TGF-b reporter, GFP fluorescence, 18 h, cells stimulated by added recombinant TGF-beta; at 46.1 µM (top of the series). The text has this: TGF-b is a main component in the TGF-b signaling pathway which plays diverse roles in cellular and development pathways. TGF-b is the mediated by the transcription factors Smads. Although the Smad-dependent pathway is the primary canonical TGF-b signaling node, TGF-b1 can also activate alternative signaling pathways, including those involving MAPK (ERK, JNK and p38). This interaction may mediate or enhance Smad-dependent responses, or can exert Smad-independent effects. The complexity of this signaling cascade allows the TGF-b superfamily to perform unique, overlapping or redundant functions. […] We aim to identify Smad3-small molecule antagonists using a quantitative high throughput screening (qHTS) approach. […]
Suspensions of trypsinized HEPG2 COP-GFP cells were dispensed into white, tissue culture-treated, solid 1536-well plates at 5uL/well (1000 cells/well final concentration) in DMEM medium supplemented with 1% FBS. […] The plates were measured on an Acumen eX3 Explorer plate reader for GFP fluorescence (ex488/em500-530). GFP values were calculated by determining the mean GFP fluorescence of individual cells, and compiling these values for each well to determine a total well GFP signal. The %Activity was determined from the corrected fluorescence values. […] Concentration-response curves were fitted to the signals arising from the resulting fluorescence. […]
On the technique in general: qHTS replaces the single test concentration by a dilution series.
Regarding `COc1c(O)cc2c(c1OC)-c1ccc(SC)c(=O)cc1C(NC(C)=O)CC2` (stereo unspecified), the activity, negative = inhibition was inactive: -11.6%.
